From the supplement of paper PMC10849652
The other results are listed elsewhere or left out.

By UniProt entry, the sequences of proteins in these tests, tags left out. Where a name states a change or a piece, a line headed by the entry shows the natural chain unless it says otherwise.
UniProt P37837: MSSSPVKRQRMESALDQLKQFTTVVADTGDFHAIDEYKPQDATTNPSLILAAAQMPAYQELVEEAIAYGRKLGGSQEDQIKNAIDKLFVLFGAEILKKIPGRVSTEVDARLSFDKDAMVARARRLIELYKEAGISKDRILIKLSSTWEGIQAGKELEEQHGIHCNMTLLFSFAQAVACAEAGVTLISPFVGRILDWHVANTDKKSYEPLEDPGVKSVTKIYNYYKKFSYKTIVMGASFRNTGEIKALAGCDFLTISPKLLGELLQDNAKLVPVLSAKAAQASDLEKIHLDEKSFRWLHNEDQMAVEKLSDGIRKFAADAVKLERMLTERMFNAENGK
UniProt Q9UK61: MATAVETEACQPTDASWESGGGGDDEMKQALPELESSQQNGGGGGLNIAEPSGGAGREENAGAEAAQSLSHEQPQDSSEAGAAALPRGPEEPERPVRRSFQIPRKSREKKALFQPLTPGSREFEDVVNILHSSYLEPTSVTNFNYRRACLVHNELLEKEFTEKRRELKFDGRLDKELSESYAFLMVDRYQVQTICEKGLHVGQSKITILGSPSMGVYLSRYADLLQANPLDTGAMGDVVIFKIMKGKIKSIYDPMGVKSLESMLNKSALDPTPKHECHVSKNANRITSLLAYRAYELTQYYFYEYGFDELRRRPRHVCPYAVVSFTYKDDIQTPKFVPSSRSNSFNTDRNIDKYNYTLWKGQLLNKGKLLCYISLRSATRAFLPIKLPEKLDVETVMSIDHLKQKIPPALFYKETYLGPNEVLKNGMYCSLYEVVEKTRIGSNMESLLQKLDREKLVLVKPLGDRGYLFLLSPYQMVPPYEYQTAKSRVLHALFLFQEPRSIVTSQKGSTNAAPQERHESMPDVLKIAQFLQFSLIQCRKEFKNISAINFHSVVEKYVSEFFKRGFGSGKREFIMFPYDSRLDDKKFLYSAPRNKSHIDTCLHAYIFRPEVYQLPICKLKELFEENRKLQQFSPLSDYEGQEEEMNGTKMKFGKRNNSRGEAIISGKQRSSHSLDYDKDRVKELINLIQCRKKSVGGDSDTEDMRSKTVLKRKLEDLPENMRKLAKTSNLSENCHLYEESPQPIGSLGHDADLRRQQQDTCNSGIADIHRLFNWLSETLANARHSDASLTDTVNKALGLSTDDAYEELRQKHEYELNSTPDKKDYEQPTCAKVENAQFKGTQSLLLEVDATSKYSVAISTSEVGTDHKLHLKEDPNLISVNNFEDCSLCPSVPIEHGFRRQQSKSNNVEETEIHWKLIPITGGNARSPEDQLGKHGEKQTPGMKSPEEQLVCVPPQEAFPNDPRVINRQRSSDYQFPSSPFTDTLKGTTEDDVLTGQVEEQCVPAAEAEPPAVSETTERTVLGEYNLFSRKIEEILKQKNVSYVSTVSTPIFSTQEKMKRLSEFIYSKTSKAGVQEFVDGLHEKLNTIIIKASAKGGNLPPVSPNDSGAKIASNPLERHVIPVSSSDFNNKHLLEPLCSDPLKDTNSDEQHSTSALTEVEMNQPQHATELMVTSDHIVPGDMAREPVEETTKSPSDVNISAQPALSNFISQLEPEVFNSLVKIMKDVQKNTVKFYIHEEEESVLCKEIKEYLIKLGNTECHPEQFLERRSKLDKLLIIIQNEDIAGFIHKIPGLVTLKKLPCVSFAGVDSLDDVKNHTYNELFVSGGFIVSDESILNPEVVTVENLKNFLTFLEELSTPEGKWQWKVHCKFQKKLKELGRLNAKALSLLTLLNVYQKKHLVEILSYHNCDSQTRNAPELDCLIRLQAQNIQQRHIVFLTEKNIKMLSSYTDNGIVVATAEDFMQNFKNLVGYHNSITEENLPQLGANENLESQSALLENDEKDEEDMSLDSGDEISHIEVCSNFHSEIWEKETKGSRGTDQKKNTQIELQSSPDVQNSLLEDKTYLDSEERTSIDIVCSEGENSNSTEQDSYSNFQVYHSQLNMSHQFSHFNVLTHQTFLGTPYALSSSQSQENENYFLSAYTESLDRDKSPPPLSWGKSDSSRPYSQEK
UniProt Q15545, whole entry, looked up: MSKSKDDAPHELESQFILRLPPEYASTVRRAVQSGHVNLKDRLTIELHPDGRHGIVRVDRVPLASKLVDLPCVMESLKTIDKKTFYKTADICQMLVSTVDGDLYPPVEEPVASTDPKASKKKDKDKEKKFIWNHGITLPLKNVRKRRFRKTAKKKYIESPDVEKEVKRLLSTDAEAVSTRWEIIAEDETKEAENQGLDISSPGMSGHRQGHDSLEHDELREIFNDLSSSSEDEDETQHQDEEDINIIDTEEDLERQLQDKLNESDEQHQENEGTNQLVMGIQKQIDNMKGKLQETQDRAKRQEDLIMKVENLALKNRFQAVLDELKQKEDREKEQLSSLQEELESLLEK
UniProt Q15554: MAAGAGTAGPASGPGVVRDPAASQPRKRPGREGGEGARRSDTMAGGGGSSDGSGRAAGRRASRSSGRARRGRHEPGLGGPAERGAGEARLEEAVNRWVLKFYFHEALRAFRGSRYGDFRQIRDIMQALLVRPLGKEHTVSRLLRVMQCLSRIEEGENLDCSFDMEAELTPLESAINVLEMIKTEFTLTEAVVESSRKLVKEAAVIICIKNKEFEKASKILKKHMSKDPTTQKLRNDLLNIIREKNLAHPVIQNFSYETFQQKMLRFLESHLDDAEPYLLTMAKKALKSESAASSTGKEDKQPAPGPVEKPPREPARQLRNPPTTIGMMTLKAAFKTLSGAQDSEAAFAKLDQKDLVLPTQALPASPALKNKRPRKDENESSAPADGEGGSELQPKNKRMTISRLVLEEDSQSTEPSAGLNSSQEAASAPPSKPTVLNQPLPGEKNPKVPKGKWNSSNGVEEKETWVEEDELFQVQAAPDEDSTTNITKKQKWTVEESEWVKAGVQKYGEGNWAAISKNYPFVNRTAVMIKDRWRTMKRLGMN
UniProt Q9BW92: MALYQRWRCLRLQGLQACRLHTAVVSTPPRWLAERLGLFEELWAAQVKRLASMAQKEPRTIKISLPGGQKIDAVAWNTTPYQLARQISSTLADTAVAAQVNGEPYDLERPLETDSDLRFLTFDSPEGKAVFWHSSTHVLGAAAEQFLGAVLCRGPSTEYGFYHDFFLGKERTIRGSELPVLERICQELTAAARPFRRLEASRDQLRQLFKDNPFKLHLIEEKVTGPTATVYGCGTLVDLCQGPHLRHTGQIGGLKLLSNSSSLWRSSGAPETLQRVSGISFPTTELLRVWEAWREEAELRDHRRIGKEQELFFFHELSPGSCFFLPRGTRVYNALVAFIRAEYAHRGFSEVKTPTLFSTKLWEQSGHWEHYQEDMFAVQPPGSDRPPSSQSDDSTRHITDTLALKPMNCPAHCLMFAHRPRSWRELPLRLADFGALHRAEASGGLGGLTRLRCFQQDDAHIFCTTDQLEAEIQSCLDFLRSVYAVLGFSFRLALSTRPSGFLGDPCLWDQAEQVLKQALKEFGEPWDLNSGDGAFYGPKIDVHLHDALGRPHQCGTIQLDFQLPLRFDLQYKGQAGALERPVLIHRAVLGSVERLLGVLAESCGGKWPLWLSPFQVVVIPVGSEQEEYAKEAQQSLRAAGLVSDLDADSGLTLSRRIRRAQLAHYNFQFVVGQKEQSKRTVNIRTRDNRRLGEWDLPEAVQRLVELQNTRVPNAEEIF
UniProt O14907: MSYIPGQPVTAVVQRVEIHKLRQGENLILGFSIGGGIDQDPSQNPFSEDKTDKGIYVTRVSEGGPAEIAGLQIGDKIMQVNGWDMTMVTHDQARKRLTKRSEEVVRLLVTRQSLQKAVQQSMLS
UniProt Q92734, whole entry, looked up: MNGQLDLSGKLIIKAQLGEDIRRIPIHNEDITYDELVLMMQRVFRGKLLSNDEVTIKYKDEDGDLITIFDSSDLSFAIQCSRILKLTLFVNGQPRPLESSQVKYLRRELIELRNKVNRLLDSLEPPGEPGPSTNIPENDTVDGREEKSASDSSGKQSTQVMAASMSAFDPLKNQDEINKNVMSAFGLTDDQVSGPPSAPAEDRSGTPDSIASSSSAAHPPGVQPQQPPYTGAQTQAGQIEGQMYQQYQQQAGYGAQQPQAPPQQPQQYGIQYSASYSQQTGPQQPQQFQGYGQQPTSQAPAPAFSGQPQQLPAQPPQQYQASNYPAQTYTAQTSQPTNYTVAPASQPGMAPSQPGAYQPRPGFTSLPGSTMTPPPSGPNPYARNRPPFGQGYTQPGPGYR
UniProt Q8WUA7: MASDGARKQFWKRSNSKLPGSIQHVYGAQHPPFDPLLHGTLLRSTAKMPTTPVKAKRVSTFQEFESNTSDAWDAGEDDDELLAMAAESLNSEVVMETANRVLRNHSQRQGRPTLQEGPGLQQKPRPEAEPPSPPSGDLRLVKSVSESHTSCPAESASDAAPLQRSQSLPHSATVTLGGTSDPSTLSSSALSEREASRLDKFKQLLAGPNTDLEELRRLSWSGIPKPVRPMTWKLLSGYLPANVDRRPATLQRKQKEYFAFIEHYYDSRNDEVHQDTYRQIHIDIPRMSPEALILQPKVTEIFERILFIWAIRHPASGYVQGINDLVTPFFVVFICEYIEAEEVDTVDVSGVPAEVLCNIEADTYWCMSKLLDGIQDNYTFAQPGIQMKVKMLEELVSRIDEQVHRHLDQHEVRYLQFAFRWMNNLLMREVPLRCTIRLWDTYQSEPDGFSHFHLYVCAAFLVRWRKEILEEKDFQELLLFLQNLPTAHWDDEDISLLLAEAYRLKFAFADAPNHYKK
UniProt P28347, whole entry, looked up: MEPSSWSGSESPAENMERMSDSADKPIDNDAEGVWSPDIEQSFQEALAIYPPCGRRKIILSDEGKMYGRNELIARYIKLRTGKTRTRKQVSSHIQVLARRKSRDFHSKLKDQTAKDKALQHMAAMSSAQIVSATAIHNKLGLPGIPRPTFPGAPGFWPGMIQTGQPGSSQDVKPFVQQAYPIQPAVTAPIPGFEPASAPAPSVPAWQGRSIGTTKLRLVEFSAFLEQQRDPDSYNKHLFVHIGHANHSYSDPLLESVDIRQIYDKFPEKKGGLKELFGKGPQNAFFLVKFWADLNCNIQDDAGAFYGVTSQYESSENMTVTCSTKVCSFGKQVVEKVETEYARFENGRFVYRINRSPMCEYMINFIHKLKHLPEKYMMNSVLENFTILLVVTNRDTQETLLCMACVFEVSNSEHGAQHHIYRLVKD

Tests used:
Assay in all cases: log2 fold change, soluble protein after heating vs DMSO (PISA); higher = thermal stabilisation; K562 lysate, 10 uM; active = over 0.2 and 3.5 SD of the protein, either way, in both replicates (recomputed)
[1] = compound: NCC(=O)Nc1ccc(-n2nc(C(F)(F)F)cc2-c2ccc3c(ccc4ccccc43)c2)cc1
In short: (§1)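 Pellets of K562 cells were dounce-homogenised in PBS pH 7.4 with 1 mM MgCl2, and the crude extract was held at 1 mg/mL protein for a 30 min treatment with 10 μM compound. Aliquots were heated for 3 min over 48°C-58°C and pooled before NP-40 was added to 0.5% at 4°C. The supernatant from 21,000xg for 90 min was quantified by TMTpro 16plex LC-MS/MS with channel sums equalised. Values are reported from duplicates as log-two fold change in thermal stability relative to solvent controls.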

[2] = compound: O=C(CCCCCCC(=O)Nc1ccccc1)NO [vorinostat]
In short: as §1

[3] = compound: O=C(O)c1ccc2c(c1)nc(Nc1cccc(Cl)c1)c1ccncc12 [silmitasertib]
In short: as §1

[4] = compound: O=C1NC(=O)C(c2cnc3ccccn23)=C1c1cn2c3c(cc(F)cc13)CN(C(=O)N1CCCCC1)CC2
In short: as §1

[5] = compound: c1cn2cc(-c3ccc4cn[nH]c4c3)nc(Nc3ccc(N4CCOCC4)cc3)c2n1 [entospletinib]
In short: as §1

Measured: log2 fold change

TALDO1 (UniProt P37837)
inactive: [1] -0.035 | [2] 0.048 | [3] 0.012 | [4] -0.014 | [5] 0.001

TASOR (UniProt Q9UK61)
inactive: [1] 0.067 | [2] 0.114 | [3] 0 | [4] -0.01 | [5] -0.018

TAF7 (UniProt Q15545)
inactive: [1] -0.005 | [2] 0.07 | [3] -0.025 | [4] -0.036 | [5] -0.014

TERF2 (UniProt Q15554)
inactive: [1] 0.008 | [2] 0.158 | [3] 0.004 | [4] 0.003 | [5] -0.034

Quoted from the entries so far (2 entries):
TAF7 (UniProt Q15545)
inactive: [1] -0.005 | [2] 0.07 | [3] -0.025 | [4] -0.036 | [5] -0.014

TERF2 (UniProt Q15554)
inactive: [1] 0.008 | [2] 0.158 | [3] 0.004 | [4] 0.003 | [5] -0.034

Additional results follow:

TARS2 (UniProt Q9BW92)
inactive: [1] -0.031 | [2] -0.252 | [3] 0.017 | [4] 0.019 | [5] -0.012

TAX1BP3 (UniProt O14907)
inactive: [1] -0.09 | [2] 0.012 | [3] 0.056 | [5] -0.005

TFG (UniProt Q92734)
inactive: [1] -0.005 | [2] 0.11 | [3] -0.02 | [4] -0.001 | [5] 0.008

TBC1D22A (UniProt Q8WUA7)
inactive: [1] -0.002 | [2] 0.09 | [3] -0.001 | [4] -0.029 | [5] 0.027

TEAD1 (UniProt P28347)
inactive: [1] 0.08 | [2] -0.077 | [3] -0.099 | [5] -0.095
